Consider 1 compound from patent US20090181898A1, “ABUSE-RESISTANT A[…]” (SHIRE LLC, priority 2002, published 2009).

Molecules are shown by their SMILES. Several values for one entry are separate records, joined by “and”; a condition that tells them apart may be missing. Identical values can stand only once. This continues a long series; more values of the same kind are listed elsewhere.

The nature of this series: Clinical pharmacokinetics, 25 and 75 mg, compared to Adderall XR and Dexedrine Spansule. The conditions noted are these: human, individual subjects.

Regarding `CC(Cc1ccccc1)NC(=O)C(N)CCCCN` [L-lysine-d-amphetamine, 2,6-diaminohexanoic acid-(1-methyl-2-phenylethyl)-amide], the “L-lysine-d-amphetamine intact conjugate concentration” value is 0 ng/mL (oral 25 mg L-lysine-d-amphetamine, 0 h); 4.1 ng/mL and 0.0 ng/mL (3×) and 5.5 ng/mL and 10.0 ng/mL and 3.6 ng/mL and 9.2 ng/mL and 9.6 ng/mL and 8.9 ng/mL (oral 25 mg L-lysine-d-amphetamine, 0.5 h); 0 ng/mL (oral 25 mg L-lysine-d-amphetamine, 16 h); 0 ng/mL (oral 25 mg L-lysine-d-amphetamine, 24 h); 0 ng/mL (oral 25 mg L-lysine-d-amphetamine, 48 h); 0 ng/mL (oral 25 mg L-lysine-d-amphetamine, 72 h). In addition, the “L-lysine-d-amphetamine intact conjugate concentration” value (oral 75 mg L-lysine-d-amphetamine, 0 h) is reported as 0 ng/mL; the “L-lysine-d-amphetamine intact conjugate concentration” value (oral 75 mg L-lysine-d-amphetamine, 0.5 h) was 10.4 ng/mL and 35.5 ng/mL and 22.6 ng/mL and 6.92 ng/mL and 10.3 ng/mL and 0 ng/mL and 9.21 ng/mL and 7.88 ng/mL and 14.5 ng/mL and 87.8 ng/mL; the “L-lysine-d-amphetamine intact conjugate concentration” value (oral 75 mg L-lysine-d-amphetamine, 1 h) is 48 ng/mL and 80.1 ng/mL and 40.5 ng/mL and 29 ng/mL and 41.5 ng/mL and 21.2 ng/mL and 30.8 ng/mL and 23.4 ng/mL and 127 ng/mL and 88.9 ng/mL; the “L-lysine-d-amphetamine intact conjugate concentration” value (oral 75 mg L-lysine-d-amphetamine, 2 h) is 8.87 ng/mL and 11.3 ng/mL and 5.53 ng/mL and 4.91 ng/mL and 9 ng/mL and 18.1 ng/mL and 5.62 ng/mL and 6.29 ng/mL and 12.1 ng/mL and 9.75 ng/mL; the “L-lysine-d-amphetamine intact conjugate concentration” value (oral 75 mg L-lysine-d-amphetamine, 3 h) is 2.15 ng/mL and 1.73 ng/mL (2×) and 1.29 ng/mL and 1.76 ng/mL and 1.82 ng/mL and 10.6 ng/mL and 0 ng/mL and 2.31 ng/mL and 2.57 ng/mL; the “L-lysine-d-amphetamine intact conjugate concentration” value (oral 75 mg L-lysine-d-amphetamine, 4 h) is 0 ng/mL (6×) and 1.09 ng/mL and 4.65 ng/mL and 1.53 ng/mL and 1.01 ng/mL. Further, the “L-lysine-d-amphetamine intact conjugate concentration” value runs as follows: (oral 75 mg L-lysine-d-amphetamine, 5 h) 0 ng/mL; (oral 75 mg L-lysine-d-amphetamine, 6 h) 0 ng/mL; (oral 75 mg L-lysine-d-amphetamine, 7 h) 0 ng/mL; (oral 75 mg L-lysine-d-amphetamine, 8 h) 0 ng/mL; (oral 75 mg L-lysine-d-amphetamine, 10 h) 0 ng/mL; (oral 75 mg L-lysine-d-amphetamine, 12 h) 0 ng/mL. For the same compound, the “L-lysine-d-amphetamine intact conjugate concentration” value is, setting by setting: (oral 75 mg L-lysine-d-amphetamine, 16 h) 0 ng/mL; (oral 75 mg L-lysine-d-amphetamine, 24 h) 0 ng/mL; (oral 75 mg L-lysine-d-amphetamine, 48 h) 0 ng/mL; (oral 75 mg L-lysine-d-amphetamine, 72 h) 0 ng/mL.
